{
  "source": "paper PMC3248428",
  "binders": {"B1": {"name": "CTTNBP2NL (protein, UniProt Q9P2B4 1-639)", "chain": "MNLEKLSKPELLTLFSILEGELEARDLVIEALKAQHRDTFIEERYGKYNISDPLMALQRDFETLKEKNDGEKQPVCTNPLSILKVVMKQCKNMQERMLSQLAAAESRHRKVILDLEEERQRHAQDTAEGDDVTYMLEKERERLTQQLEFEKSQVKKFEKEQKKLSSQLEEERSRHKQLSSMLVLECKKATNKAAEEGQKAGELSLKLEKEKSRVSKLEEELAAERKRGLQTEAQVEKQLSEFDIEREQLRAKLNREENRTKTLKEEMESLKKIVKDLEASHQHSSPNEQLKKPVTVSKGTATEPLMLMSVFCQTESFPAERTHGSNIAKMTNTGLPGPATPAYSYAKTNGHCDPEIQTTRELTAGNNVENQVPPREKSVALAQEKPVENGGCPVGIETPVPMPSPLSSSGSSLSPSSTASSSLTSSPCSSPVLTKRLLGSSASSPGYQSSYQVGINQRFHAARHKFQSQADQDQQASGLQSPPSRDLSPTLIDNSAAKQLARNTVTQVLSRFTSQQGPIKPVSPNSSPFGTDYRNLANTANPRGDTSHSPTPGKVSSPLSPLSPGIKSPTIPRAERGNPPPIPPKKPGLTPSPSATTPLTKTHSQAASLTTAEDLASSCSSNTVVANGKDVELLLPTSS"}},
  "molecular_target": "T1, STRN (human (endogenous in MCF-7)) (UniProt O43815)",
  "T1 sequence": "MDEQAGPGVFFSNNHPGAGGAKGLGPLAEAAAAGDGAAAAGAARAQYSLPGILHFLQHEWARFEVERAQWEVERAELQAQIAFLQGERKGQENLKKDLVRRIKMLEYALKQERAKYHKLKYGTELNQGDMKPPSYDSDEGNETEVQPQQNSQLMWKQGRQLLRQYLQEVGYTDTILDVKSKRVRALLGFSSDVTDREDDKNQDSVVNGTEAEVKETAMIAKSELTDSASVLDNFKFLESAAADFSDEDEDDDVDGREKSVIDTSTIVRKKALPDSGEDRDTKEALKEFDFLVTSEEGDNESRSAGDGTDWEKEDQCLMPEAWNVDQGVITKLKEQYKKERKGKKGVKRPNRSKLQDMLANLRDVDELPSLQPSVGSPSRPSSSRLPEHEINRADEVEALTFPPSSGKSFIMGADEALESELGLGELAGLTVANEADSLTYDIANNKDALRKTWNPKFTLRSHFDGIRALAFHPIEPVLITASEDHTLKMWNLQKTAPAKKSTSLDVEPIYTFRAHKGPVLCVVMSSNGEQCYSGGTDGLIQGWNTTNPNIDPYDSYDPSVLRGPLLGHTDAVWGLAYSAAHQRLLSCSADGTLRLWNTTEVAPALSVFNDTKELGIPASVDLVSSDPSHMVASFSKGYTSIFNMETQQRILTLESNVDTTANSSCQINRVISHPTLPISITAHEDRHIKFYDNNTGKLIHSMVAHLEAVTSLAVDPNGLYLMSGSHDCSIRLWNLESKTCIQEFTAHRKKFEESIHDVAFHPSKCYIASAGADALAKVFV",
  "test": "co-IP; endogenous STRN immunoprecipitated from pre-cleared MCF-7 lysate with Striatin antibody (overnight) and Protein-A beads; rabbit IgG as negative control; Western blot for CTTNBP2NL; buffer Hepes 50 mM pH 7.4, NaCl 150 mM, EDTA 1 mM, Tween-20 0.1%, glycerol 10%",
  "note": "Results are given in words; binding and its absence hold for the method and conditions named. In cells and extracts the contact can be indirect. Some entries that bind do so weakly or less than the wild type.",
  "data": [
    {"binder": "B1", "values": [
      {"measurement": "binding", "result": "binds"}
    ]}
  ]
}
